The text below walks through data of BindingDB's records for doi:10.1038/350610a0 (University of Toronto, 1991).

The structures appear in SMILES notation.

Broadly, the Ki is a dissociation constant, usually derived from enzyme kinetics or from competition with a known ligand.

The target in the experiment is T1, D(4) dopamine receptor (Rattus norvegicus, UniProt P30729).
T1 sequence (P30729 whole entry): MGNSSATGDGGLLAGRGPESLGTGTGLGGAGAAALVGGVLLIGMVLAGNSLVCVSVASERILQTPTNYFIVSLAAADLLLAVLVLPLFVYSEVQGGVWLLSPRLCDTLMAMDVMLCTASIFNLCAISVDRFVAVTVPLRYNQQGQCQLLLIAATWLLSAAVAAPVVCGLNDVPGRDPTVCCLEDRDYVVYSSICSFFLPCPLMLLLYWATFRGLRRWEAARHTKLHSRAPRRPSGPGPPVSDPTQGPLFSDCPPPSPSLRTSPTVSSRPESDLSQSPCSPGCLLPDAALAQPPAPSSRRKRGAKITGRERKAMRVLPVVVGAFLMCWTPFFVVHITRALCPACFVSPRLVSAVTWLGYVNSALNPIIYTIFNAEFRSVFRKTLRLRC

As for `CSc1ccc2c(c1)N(CC[C@@H]1CCCCN1C)c1ccccc1S2` [10-[2-(1-Methyl-piperidin-2-yl)-ethyl]-2-methylsulfanyl-10H-phenothiazine (thioridazine)], the inhibition constant (Ki) came out at 12 nM.
